Reference: paper PMC6737903

Protein sequences, listed by entry. Tags and fused reporters are not part of them. Lines headed by an entry give the natural chain unless they say otherwise; changes in a name come on top. Residues count along the entry.
UniProt P23023, residues 1-397: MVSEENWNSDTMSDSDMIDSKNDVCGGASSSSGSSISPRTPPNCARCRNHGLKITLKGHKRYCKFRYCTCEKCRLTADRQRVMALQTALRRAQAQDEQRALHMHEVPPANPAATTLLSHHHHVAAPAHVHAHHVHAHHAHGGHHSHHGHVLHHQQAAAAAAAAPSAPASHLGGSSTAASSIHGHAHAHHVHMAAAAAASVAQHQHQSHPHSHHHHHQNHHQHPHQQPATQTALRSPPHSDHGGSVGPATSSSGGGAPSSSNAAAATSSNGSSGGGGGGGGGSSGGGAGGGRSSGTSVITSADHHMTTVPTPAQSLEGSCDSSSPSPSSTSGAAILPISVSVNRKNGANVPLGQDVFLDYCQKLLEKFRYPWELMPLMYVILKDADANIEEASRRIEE

Columns and labels:
[1] = target: GST-AbdB-N (truncated version of AbdB-r, aa residues 89-270) (Drosophila) (UniProt P09087); assay: pull-down; GST pulldown: GST-tagged AbdB proteins or GST alone as bait; bacterially expressed His-tagged Dsx proteins as input cell lysates; Western blot; three repetitions; only the target purified
[2] = target: GST-AbdB-NΔHD (Drosophila) (UniProt P09087); assay: as above

| binding [1] | binding [2] | Substance |
| --- | --- | --- |
| no binding |  | DsxΔDBD (aa residues 101-397) (from UniProt P23023) (domain or fragment) |
|  | no binding | His-Dsx^CR (Dsx common region, aa residues 1-397) (from UniProt P23023 1-397) (domain or fragment) |

Results are given in words; binding and its absence hold for the method and conditions named. Binding seen in cells or lysates may run through a third protein.
